# This is one part of the list.
# B1: il2ra_site1_3nfp_sap_10_mot_HHH_b1_03195_af2_000000163_0001_42_58_H_._HHH_b2_02207_0001_0000600013_0000001_0_0001 (protein)
# chain: SSSSDQEAADELYELIKALIELAREGDEEEAEKVLKRLEELAKELGDEDAERAVEFLRRANSSSS
# B2: il2ra_site2_3nfp_normal_mot_HHH_b1_01086_000000225_0001_20_36_H_._HHH_b1_05252_0001_0000300013_0000001_0 (protein)
# chain: SSSSEEEELERLLERIKELLEQGNLEEARELLRKVTHLAFKANDFEVFAAVADLSFLLFELNSSS
# B3: il2ra_site2_2erj_normal_mot_ems_3hM_1508_000000265_0001_1_20_H_._HHH_b2_01938_af2_0001_0000500037_0000001_0 (protein)
# chain: SSSSSDEEERVLELLQEALEVQDEERFEELLREAKELAEELGDEELRLMIEVLERYRERLSSSSS
# B4: il2ra_site2_3nfp_normal_mot_HHH_b1_05437_000000005_0001_40_57_H_._HHH_b1_02280_0001_0000400026_0000001_0 (protein)
# chain: SSSSSSSEEERRVEELIEELRHVDEEERKRLLQEATHLAYENRNFELFAILAEELYKLASSSSSS
# B5: il2ra_site1_3nfp_sap_19_mot_HHH_b1_02637_af2_000000026_0001_1_18_H_._HHH_b1_03532_0001_0000300009_0000001_0_0001 (protein)
# chain: SSSSSSDEEEVERLLEEAKHIEDPEEAARILEEAYRIAQEAKNQELADEIYKVLREIISSSSSSS
# B6: il2ra_site1_3nfp_normal_mot_HHH_b1_03476_af2_000000029_0001_1_17_H_._7d14571b405f2e878e8a4f9002b40290_0001_1_0001_0000400021_0000001_0_af2pred_0001_af2pred_1 (protein)
# chain: SLEEVEERLEKILGDPELAKLLVEALELFERGDPRQAARVLRELAKLLGDFREVFKLAKRVAELL
# B7: il2ra_site1_2b5i_normal_mot_3116615af0ee64d731c1c85d8523bf51_0001_000000216_0001_15_32_H_._HHH_b2_02169_0001_0000700016_0000001_1_af2pred_dldesign_0_af2pred (protein)
# chain: SSSSSNAREEVERLIEEAKKLKNKREAFETLTKAHALASAAGDDELQDRVEELFSELSKKSSSSS
# B8: il2ra_site2_2erj_sap_27_mot_HHH_b1_01239_000000175_0001_43_57_H_._59747a5255cd687c2960285eb4440dff_0001_1_af2_0001_0000600010_0000001_0_0001 (protein)
# chain: SSSSSSSLLEEAEEEIERLLEEGNAEEALRLAYEVANELLRRDLELAREFLERAQELFSSSSSSS
# B9: il2ra_site1_1z92_sap_14_mot_HHH_b2_05238_af2_000000252_0001_38_55_H_._HHH_b1_03322_0001_0000400015_0000001_0_0001_af2pred_0001_af2pred_1 (protein)
# chain: SELEEILEEVLKLVPNPRVREFLREQLERKLKLGDEESAIRLALHVAEQAGDPELAEELRKLLEP
# B10: il2ra_site1_3nfp_normal_mot_HHH_b1_07204_af2_000000238_0001_41_55_H_._HHH_b1_04029_af2_0001_0000200007_0000001_0 (protein)
# chain: SSSSSEEYEEALKLSRELKELLREGDEEEIRRVAEELEKLARELNDPIAERLVEDVLRSASSSSS
# B11: il2ra_site1_2b5i_normal_mot_HHH_b1_06312_000000036_0001_42_56_H_._HHH_b2_04237_0001_0000100004_0000001_0_af2pred_dldesign_0_af2pred (protein)
# chain: SSSSSLGKEARETMLEANRLYQAGKPEEAKALLEKMLEKLKAAGKEGMVKKMERLLKLVLESSSS
# B12: il2ra_site1_1z92_normal_mot_HHH_b2_04090_000000052_0001_1_16_H_._HHH_b2_04723_0001_0000100003_0000001_0 (protein)
# chain: SSSSSTAEKLSEFLFEQLKRKLELGNEKAVKRVSEMARKQAEESKDEELEKLVEEAERFLSSSSS
# B13: il2ra_site2_2erj_normal_mot_4b0744c440632e7b239d8b54ed7c44c2_0001_af2_000000182_0001_16_31_H_._HHH_b1_02773_0001_0000200005_0000001_0 (protein)
# chain: SSSSSSSDEEEVERLLEEAEKIPDERELFKLLNEAQHIAARLRDPELLRLILEFLRRFSSSSSSS
# B14: il2ra_site2_2erj_sap_28_mot_ems_3hM_1508_000000265_0001_1_20_H_._113ce01fecf454417ad6f831214e9432_0001_af2_0001_0000500015_0000001_0_0001 (protein)
# chain: SSSSSDQREVARRVSELLAEAAHVSEEERKELLEEARRLAEEANDPTLERYIELAARHAKSSSSS
# B15: il2ra_site1_2b5i_sap_13_mot_HHH_b2_06055_af2_000000048_0001_1_19_H_._HHH_b1_06687_af2_0001_0000300028_0000001_0_0001_af2pred_dldesign_0_af2pred (protein)
# chain: SSSSSPEKEKALKLFLEADKLKKAGKEEEAKKKLEEALKLAEKGKAPTLVKIIKSALEDLESSSS
# B16: il2ra_site2_2erj_normal_mot_HHH_b2_07139_000000086_0001_40_57_H_._HHH_b1_02677_af2_0001_0000400010_0000001_0 (protein)
# chain: SSSSDESVKAAEELAEKAHERGDEEELRLLLRFAERSAERTKDPELERLVEEIEELLERLRSSSS
# B17: il2ra_site1_3nfp_sap_12_mot_HHH_b2_05589_af2_000000060_0001_42_57_H_._HHH_b2_06542_0001_0000700021_0000001_0_0001 (protein)
# chain: SSSSDRADRIYKLMRAMIEAQKRGDDELVKELLEEVKELAKEAGDEVLERDIEWAERAYGSSSSS
# B18: il2ra_site1_2b5i_sap_8_mot_HHH_b2_00070_000000071_0001_43_56_H_._HHH_b1_07198_0001_0000500020_0000001_0_0001_af2pred_dldesign_0_af2pred (protein)
# chain: SSSSDPFELAERAFDTALKLHKEGKKEEAKKVLEEAIEELKKLKDDKHVAELELLLKRVLASSSS
# B19: il2ra_site1_2b5i_normal_mot_HHH_b1_02271_000000068_0001_1_16_H_._HHH_b2_03359_af2_0001_0000400009_0000001_0_af2pred_dldesign_0_af2pred (protein)
# chain: SSSSSNSEKVKALIEEAKKLKDRREALKKLEEAKKLADDADDEELSDEVEKLAKELFKKSSSSSS
# B20: il2ra_site1_1z92_sap_11_mot_0a54d8a7266968de9ae0346ffe2baff0_0001_af2_000000020_0001_37_50_H_._2f69edf39d0b4cbfc537af338e4f3bc0_0001_af2_0001_0000300009_0000001 … (protein)
# chain: SMIERDVRAAKKLGIPPEKIVMALVRALADVHNVPPEEAIEILLELLEELGDPLREVVEELLERK
# B21: il2ra_site1_2b5i_sap_11_mot_HHH_b1_08504_af2_000000158_0001_42_54_H_._HHH_b2_03078_af2_0001_0000100008_0000001_0_0001 (protein)
# chain: SSSSDDQELQELFHEASRVFRKGDLEKAKEILQEALELAEELNDEKAAEDLRFFLEWIEISSSSS
# B22: il2ra_site1_2b5i_normal_mot_22370d59370c406a0c205a431f537cfa_0001_af2_000000027_0001_1_31_H_._HHH_b1_06542_af2_0001_0000200014_0000001_0 (protein)
# chain: SSSSDEETRFAAEVVAKLSEEFNLDAEQDNALIRLATELLWRGVSPEEIERLLEELAERLSSSSS
# B23: il2ra_site2_2erj_normal_mot_c2bf78bdce995293a161f7082e24b401_0001_af2_000000082_0001_17_32_H_._HHH_b2_06259_0001_0000100003_0000001_0 (protein)
# chain: SSSSSEELKRLYELANQALEALQKGDEELVEELLEELEKLAEEADSPNVEEIIRFLEEELRSSSS
# B24: il2ra_site1_2b5i_sap_11_mot_3e74c73188b6ebc5400a9f1924dc867e_0001_1_000000111_0001_17_32_H_._HHH_b2_00953_af2_0001_0000500038_0000001_0_0001_af2pred_dldesign_0_ … (protein)
# chain: SSSSDPKYEELERLYKEALRLYKAGKREEALEVLEKAIKLAKELKDEKAVKELEELKERLKSSSS
# Molecular target: il2ra, P01589
# Experiment: yeast display titration
row,Binder,apparent Kd
1,B1,inactive: no binding seen
2,B2,inactive: no binding seen
3,B3,inactive: no binding seen
4,B4,inactive: no binding seen
5,B5,inactive: no binding seen
6,B6,inactive: no binding seen
7,B7,inactive: no binding seen
8,B8,inactive: no binding seen
9,B9,inactive: no binding seen
10,B10,inactive: no binding seen
11,B11,inactive: no binding seen
12,B12,inactive: no binding seen
13,B13,inactive: no binding seen
14,B14,inactive: no binding seen
15,B15,inactive: no binding seen
16,B16,inactive: no binding seen
17,B17,inactive: no binding seen
18,B18,inactive: no binding seen
19,B19,inactive: no binding seen
20,B20,inactive: no binding seen
21,B21,inactive: no binding seen
22,B22,inactive: no binding seen
23,B23,inactive: no binding seen
24,B24,inactive: no binding seen

# Quoted at random: 2 entries already listed, in no set order.
row,Binder,apparent Kd
22,B22,inactive: no binding seen
6,B6,inactive: no binding seen
